Measured values reported in article PMC12844124, “Synthesis and Study of Substituted Chalcones Combined with Fluoroazobenzenes—New Photoswitches for Application in Biological Systems” (Molecules, 2026).

System: PC-3 cells
Assay: MTS cell proliferation assay, PC-3
Type: cell-based
Conditions: Homo sapiens
Description: Human BJ fibroblasts (American Type Cell Culture Collection, Manassas, VA, USA, CRL-2522) and human prostate cancer cell line PC-3 (American Type Cell Culture Collection, Manassas, VA, USA, CRL-1435), derived from bone metastases, were routinely grown in […]) Medium (ThermoFisher, Waltham, MA, USA, 21127-022) and supplemented with heat-inactivated 10% Fetal Bovine Serum (Biowest, France, […]) and 1% antibiotic solution (Biowest, Nuaillé, France, L0022), in a humidified 5% CO2 atmosphere at 37 °C. Cells were used between 3 and 20 passages. […] The cell proliferation was analyzed with CellTiter Aqueous One Solution Cell Proliferation MTS (3-(4,5-dimethylthiazol-2-yl)-5-(3-carboxymethoxyphenyl)-2-(4-sulfophenyl)-2H-tetrazolium) Assay (Promega, Madison, WI, USA, G5430) after 24 or 48 h of treatment. The absorbance was measured at 490 and 670 nm with FLUOStar Omega plate reader (BMG LABTECH GmbH, Ortenberg, Germany). […] To assess the goodness of fit for each of the biological replicates, deviance R^2 (DR^2) was calculated and assessed. […] The DR^2 was calculated according to the following Equation: 1 - (Dres/Dnull), where Dres-residual deviance and Dnull-null deviance (deviance of the model with mean as a predicted value). The null hypothesis was assessed with the two-way ANOVA with Tukey's post hoc test for multiple comparisons or with the two-way t-test when only two groups were compared. […]

Structure (SMILES): COc1cc2c(c(OC)c1OC)-c1ccc(OC)c(=O)cc1[C@@H](NC(C)=O)CC2 [colchicine, reference compound]
- IC50 (PC-3, 24 h): 23.5 ± 2.75 nM
- IC50 (PC-3, 48 h): 12.5 ± 1.26 nM
